Results are given in words; binding and its absence hold for the method and conditions named. In cells and extracts the contact can be indirect. Some binding calls cover weakened binding; strength is not graded here.

The chains behind the UniProt entries cited, without tags or fusion partners.
UniProt P19484: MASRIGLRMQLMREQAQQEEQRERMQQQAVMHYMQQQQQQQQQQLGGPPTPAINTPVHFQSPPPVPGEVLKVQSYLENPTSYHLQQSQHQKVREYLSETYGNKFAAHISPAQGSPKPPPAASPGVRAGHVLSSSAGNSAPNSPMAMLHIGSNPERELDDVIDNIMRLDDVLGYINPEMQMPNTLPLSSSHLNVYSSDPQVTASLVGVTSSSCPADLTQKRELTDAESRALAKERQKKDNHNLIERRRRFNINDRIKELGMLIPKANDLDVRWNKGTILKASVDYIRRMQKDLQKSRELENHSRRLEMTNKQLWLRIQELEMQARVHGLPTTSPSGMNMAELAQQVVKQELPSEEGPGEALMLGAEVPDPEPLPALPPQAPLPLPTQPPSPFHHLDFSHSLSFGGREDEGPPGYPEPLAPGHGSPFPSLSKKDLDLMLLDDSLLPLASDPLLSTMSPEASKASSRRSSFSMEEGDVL

For this test, the target named is Transcription factor EB (human (endogenous in HK2)) (UniProt P19484). Kind of test: co-IP; HK2 whole-cell extracts (1 mg protein in 100 μL lysis buffer), precleared; 1 μg rabbit anti-PGC-1α or rabbit anti-TFEB overnight at 4 °C, protein A/G agarose; western blot for TFEB and PGC-1α; anti-IgG as negative control. For orientation: In western blotting, separated proteins are transferred to a membrane and probed.

B1: peroxisome proliferator-activated receptor γ coactivator-1 alpha (protein, UniProt Q9UBK2-1 1-798)
chain: MAWDMCNQDSESVWSDIECAALVGEDQPLCPDLPELDLSELDVNDLDTDSFLGGLKWCSDQSEIISNQYNNEPSNIFEKIDEENEANLLAVLTETLDSLPVDEDGLPSFDALTDGDVTTDNEASPSSMPDGTPPPQEAEEPSLLKKLLLAPANTQLSYNECSGLSTQNHANHNHRIRTNPAIVKTENSWSNKAKSICQQQKPQRRPCSELLKYLTTNDDPPHTKPTENRNSSRDKCTSKKKSHTQSQSQHLQAKPTTLSLPLTPESPNDPKGSPFENKTIERTLSVELSGTAGLTPPTTPPHKANQDNPFRASPKLKSSCKTVVPPPSKKPRYSESSGTQGNNSTKKGPEQSELYAQLSKSSVLTGGHEERKTKRPSLRLFGDHDYCQSINSKTEILINISQELQDSRQLENKDVSSDWQGQICSSTDSDQCYLRETLEASKQVSPCSTRKQLQDQEIRAELNKHFGHPSQAVFDDEADKTGELRDSDFSNEQFSKLPMFINSGLAMDGLFDDSEDESDKLSYPWDGTQSYSLFNVSPSCSSFNSPCRDSVSPPKSLFSQRPQRMRSRSRSFSRHRSCSRSPYSRSRSRSPGSRSSSRSCYYYESSHYRHRTHRNSPLYVRSRSRSPYSRRPRYDSYEEYQHERLKREEYRREYEKRESERAKQRERQRQKAIEERRVIYVGKIRPDTTRTELRDRFEVFGEIEECTVNLRDDGDSYGFITYRYTCDAFAALENGYTLRRSNETDFELYFCGRKQFFKSNYADLDSNSDDFDPASTKSKYDSLDFDSLLKEAQRSLRR
On to B1, for which the binding entry was “binds”.

For the origin of these results see publication PMC8034953.
